19 sequences from US6472515 can be followed below.

The chains behind the UniProt entries cited, without tags or fusion partners. Residues count along the entry.
UniProt P98177, 86-211: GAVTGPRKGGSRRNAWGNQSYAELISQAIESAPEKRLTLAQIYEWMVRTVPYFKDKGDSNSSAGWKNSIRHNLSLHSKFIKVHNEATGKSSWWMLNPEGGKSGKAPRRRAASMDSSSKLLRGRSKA

This data set addresses GST-AfxDBD (Afx/FOXO4 fork head DNA binding domain) (Homo sapiens) (UniProt P98177). Briefly: SELEX. The note with it: protein in a lysate after overexpression, protein details: N-terminal GST (pGEX-2T-KB), E. coli extract.

Construct, isoform or probe ends are uncertain for at least one entry. Results from cells or extracts need not show a direct contact.

For “GGAGCATAAACATGTTGTTGGCGGC (double strand) [Afx selected 14]”, the selection result (six rounds, as above) was “selected”.
On to “GGTAGGCAGCACAACATGTTTACCC (double strand) [Afx selected 17]”, for which the selection result (six rounds, as above) is “selected”.
Regarding “GGCAGCGGTAAACATGTTGTCTCCC (double strand) [Afx selected 11]”, the selection result (six rounds, as above) is reported as “selected”.
On to “GGGCGGGATAAACATGTTATGCTCC (double strand) [Afx selected 16]”, for which, for the setting “six rounds, as above”, the selection result is “selected”.
With “GGCATAGCTCTGTGTAAACATGTTG (double strand) [Afx selected 8]”, the selection result (six rounds, as above) was “selected”.
As to “GGCACCCGCAGTAAACATGTTATGC (double strand) [Afx selected 7]”, the selection result (six rounds, as above) is on record as “selected”.
In the case of “GGGAGCCCCATAACATGTTTTCACG (double strand) [Afx selected 19]”, for the setting “six rounds, as above”, the selection result is on record as “selected”.
On to “GGACGGTAGGGGAGTAAACATGTTG (double strand) [Afx selected 5]”, for which the selection result (six rounds, as above) is “selected”.
“GGCCCACGGTCAACATGTTTTGATG (double strand) [Afx selected 12]”: the selection result (six rounds, as above) was “selected”.
As for “GGCAGGACGGTACACAAACATGTTG (double strand) [Afx selected 9]”, the selection result (six rounds, as above) was “selected”.
As for “GGGCCCAGGCATAAACATGTTGTTG (double strand) [Afx selected 20]”, the selection result (six rounds, as above) is “selected”.
With “GGCGGGAGGTGTCAACATGTTGTGC (double strand) [Afx selected 6]”, the selection result (six rounds, as above) is given as “selected”.
Same read-out and setting: in the case of “GGCGGGGACTCGGGTAAACATGTTG (double strand) [Afx selected 13]” it was “selected”.
With “GGGTAAACATGTTGT (double strand) [Afx consensus]”, the selection result (consensus of 20 selected sequences) was “selected”.
Regarding “GCCCCACTCCATAACATGTTGTTC (double strand) [Afx selected 1]”, the selection result is on record as “selected”.
Take “GGCCGACTATCAACATGTTTGCCTG (double strand) [Afx selected 3]”: for the setting “six rounds, as above”, the selection result was “selected”.
On the same count and under the same terms, in the case of “GGCATCAACATGTTTATAATGGGTG (double strand) [Afx selected 10]” it was “selected”; in that of “GGTACATACGGTAAACATGTTGTGC (double strand) [Afx selected 18]”, “selected”; in that of “GGCCGCGGATAACAACATGTTGTTG (double strand) [Afx selected 2]”, “selected”.
